Measured data: PubChem BioAssay AID504764 (Drosophila RNAi Screening Center, 2011)
The screen tested about 22,000 reagents; this is an unselected part of those that have a named target and a result. In the full data, 403 (1.9%) are marked active. 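Unnormalised raw counts per well; ratio z-scores behind the hit calls and whether each hit raises or lowers signal are not deposited.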 Entries without a mark were called inactive. The record does not give: the amount of reagent.

Screen: 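Genome-wide screen for regulators of Notch-driven gene expression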 (primary screen)
Cell system: Drosophila Kc167 cells
Knock-down reagent: long dsRNA against Drosophila genes
Time to read-out: about 5 days (4 days dsRNA, then 24 h after transfection)
Challenge: transfection of constitutively active membrane-tethered Notch lacking the extracellular domain, read 24 h later
Read-out: 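Firefly luciferase from an E(spl)m3 reporter with active Notch, plus control-promoter and uninduced reporter wells for normalisation; unnormalised counts, duplicate wells a and b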
Direction: induced reporter light, run 1, well a and induced reporter light, run 1, well b: higher = more light from the Notch target reporter with active Notch; control promoter light, run 1, well a and control promoter light, run 1, well b: higher = more light from the viral control promoter (cell number, transfection, viability); uninduced reporter light, run 1, well a: higher = more light from the Notch target reporter without active Notch
Rule for the call: 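Hit if the duplicate-averaged log2 ratio of induced to control-promoter light gives a plate-wise z beyond ±2, or induced to uninduced beyond ±1.8; weak-control or discordant-duplicate wells dropped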
Meaning of the calls: active = modifier hit (raised or lowered Notch signal); inactive = not a hit

With CG3224 [DRSC18295], what does the deposit list?
induced reporter light, run 1, well a: 1.19e5; induced reporter light, run 1, well b: 1.52e5; control promoter light, run 1, well a: 2.61e5; control promoter light, run 1, well b: 2.81e5; uninduced reporter light, run 1, well a: 9090

For CG32206 [DRSC09602], what was measured?
induced reporter light, run 1, well a: 2.13e5; induced reporter light, run 1, well b: 2.63e5; control promoter light, run 1, well a: 2.09e5; control promoter light, run 1, well b: 2.42e5; uninduced reporter light, run 1, well a: 16455

For CG32206 [DRSC10094], what does the deposit list?
induced reporter light, run 1, well a: 1.92e5; induced reporter light, run 1, well b: 1.38e5; control promoter light, run 1, well a: 91540; control promoter light, run 1, well b: 1.14e5; uninduced reporter light, run 1, well a: 8710

Which result is listed for CG32206 [DRSC10095]?
induced reporter light, run 1, well a: 1.31e5; induced reporter light, run 1, well b: 87090; control promoter light, run 1, well a: 94395; control promoter light, run 1, well b: 70175; uninduced reporter light, run 1, well a: 6340

For CG32206 [DRSC10096], how do the results read?
induced reporter light, run 1, well a: 97015; induced reporter light, run 1, well b: 67730; control promoter light, run 1, well a: 80215; control promoter light, run 1, well b: 65335; uninduced reporter light, run 1, well a: 6645

For CG32206 [DRSC11080], what was measured?
induced reporter light, run 1, well a: 1.07e5; induced reporter light, run 1, well b: 92100; control promoter light, run 1, well a: 81905; control promoter light, run 1, well b: 72450; uninduced reporter light, run 1, well a: 9490

With CG14104 [DRSC10106], what does the deposit list?
induced reporter light, run 1, well a: 1.23e5; induced reporter light, run 1, well b: 1.13e5; control promoter light, run 1, well a: 1.21e5; control promoter light, run 1, well b: 1.22e5; uninduced reporter light, run 1, well a: 9300

What did the screen give for CG43317 [DRSC15000]?
induced reporter light, run 1, well a: 2.63e5; induced reporter light, run 1, well b: 2.71e5; control promoter light, run 1, well a: 2.45e5; control promoter light, run 1, well b: 2.54e5; uninduced reporter light, run 1, well a: 19360

What did the screen give for Vha100-5 (Vacuolar H[+] ATPase 100kD subunit 5) [DRSC02175]?
induced reporter light, run 1, well a: 1.02e5; induced reporter light, run 1, well b: 1.30e5; control promoter light, run 1, well a: 69920; control promoter light, run 1, well b: 1.06e5; uninduced reporter light, run 1, well a: 17290

Which result is listed for sowah (sosondowah) [DRSC09186]?
induced reporter light, run 1, well a: 2.06e5; induced reporter light, run 1, well b: 2.46e5; control promoter light, run 1, well a: 2.45e5; control promoter light, run 1, well b: 2.25e5; uninduced reporter light, run 1, well a: 15310

With sowah (sosondowah) [DRSC09758], what was measured?
induced reporter light, run 1, well a: 80220; induced reporter light, run 1, well b: 90790; control promoter light, run 1, well a: 62690; control promoter light, run 1, well b: 32595; uninduced reporter light, run 1, well a: 9395

With Mmp2 (Matrix metalloproteinase 2) [DRSC06698], what was measured?
induced reporter light, run 1, well a: 1.59e5; induced reporter light, run 1, well b: 1.67e5; control promoter light, run 1, well a: 2.51e5; control promoter light, run 1, well b: 2.19e5; uninduced reporter light, run 1, well a: 16405

With CG10132 [DRSC02013], what does the deposit list?
induced reporter light, run 1, well a: 1.72e5; induced reporter light, run 1, well b: 2.19e5; control promoter light, run 1, well a: 1.68e5; control promoter light, run 1, well b: 1.71e5; uninduced reporter light, run 1, well a: 15575

With GckIII (Germinal centre kinase III) [DRSC15729], what was measured?
induced reporter light, run 1, well a: 1.67e5; induced reporter light, run 1, well b: 1.97e5; control promoter light, run 1, well a: 1.73e5; control promoter light, run 1, well b: 1.68e5; uninduced reporter light, run 1, well a: 17360

Which result is listed for Acadvl (Acyl-CoA dehydrogenase very long chain) [DRSC07022]?
induced reporter light, run 1, well a: 1.12e5; induced reporter light, run 1, well b: 1.31e5; control promoter light, run 1, well a: 1.95e5; control promoter light, run 1, well b: 1.96e5; uninduced reporter light, run 1, well a: 8565

How did the screen score Sf3b6 (Splicing factor 3b subunit 6) [DRSC09972]?
induced reporter light, run 1, well a: 1.03e5; induced reporter light, run 1, well b: 1.04e5; control promoter light, run 1, well a: 68425; control promoter light, run 1, well b: 64210; uninduced reporter light, run 1, well a: 5510

Quoted from above for reference:
CG43317 [DRSC15000] → induced reporter light, run 1, well a = 2.63e5; induced reporter light, run 1, well b = 2.71e5; control promoter light, run 1, well a = 2.45e5; control promoter light, run 1, well b = 2.54e5; uninduced reporter light, run 1, well a = 19360
Vha100-5 (Vacuolar H[+] ATPase 100kD subunit 5) [DRSC02175] → induced reporter light, run 1, well a = 1.02e5; induced reporter light, run 1, well b = 1.30e5; control promoter light, run 1, well a = 69920; control promoter light, run 1, well b = 1.06e5; uninduced reporter light, run 1, well a = 17290

The results go on:
How did the screen score AttC (Attacin-C) [DRSC06886]?
induced reporter light, run 1, well a: 1.10e5; induced reporter light, run 1, well b: 96560; control promoter light, run 1, well a: 1.23e5; control promoter light, run 1, well b: 1.21e5; uninduced reporter light, run 1, well a: 8675

How did the screen score CG1172 [DRSC12182]?
induced reporter light, run 1, well a: 1.11e5; induced reporter light, run 1, well b: 1.16e5; control promoter light, run 1, well a: 91630; control promoter light, run 1, well b: 94125; uninduced reporter light, run 1, well a: 5555

For CG14454 [DRSC11711], how do the results read?
induced reporter light, run 1, well a: 1.15e5; induced reporter light, run 1, well b: 78605; control promoter light, run 1, well a: 1.01e5; control promoter light, run 1, well b: 1.17e5; uninduced reporter light, run 1, well a: 6400

How did the screen score Cpr97Ea (Cuticular protein 97Ea) [DRSC15974]?
induced reporter light, run 1, well a: 1.55e5; induced reporter light, run 1, well b: 1.87e5; control promoter light, run 1, well a: 2.16e5; control promoter light, run 1, well b: 1.95e5; uninduced reporter light, run 1, well a: 14728

With hzg (herzog) [DRSC10549], what does the deposit list?
induced reporter light, run 1, well a: 1.45e5; induced reporter light, run 1, well b: 1.37e5; control promoter light, run 1, well a: 1.04e5; control promoter light, run 1, well b: 1.12e5; uninduced reporter light, run 1, well a: 15578

For CG7646 [DRSC11232], what was measured?
induced reporter light, run 1, well a: 1.17e5; induced reporter light, run 1, well b: 90080; control promoter light, run 1, well a: 1.47e5; control promoter light, run 1, well b: 1.45e5; uninduced reporter light, run 1, well a: 8810

For Gpdh2 (Glycerol-3-phosphate dehydrogenase 2) [DRSC04346], what does the deposit list?
induced reporter light, run 1, well a: 2.05e5; induced reporter light, run 1, well b: 1.75e5; control promoter light, run 1, well a: 1.71e5; control promoter light, run 1, well b: 1.77e5; uninduced reporter light, run 1, well a: 13288

For CG14258 [DRSC14753], how do the results read?
induced reporter light, run 1, well a: 1.26e5; induced reporter light, run 1, well b: 1.25e5; control promoter light, run 1, well a: 2.09e5; control promoter light, run 1, well b: 1.58e5; uninduced reporter light, run 1, well a: 13555
